Measured data: PubChem BioAssay AID1508588 (Peter MacCallum Cancer Centre, 2020)
Assay: 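Genome-wide search for knock-downs that heighten vemurafenib action in melanoma cells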 (primary screen). System: human WM266.4 melanoma cells (BRAF V600 mutant). Reagents: siRNA pool against human genes, 40 nM. Duration: 96 h from transfection to read-out. Conditions: vemurafenib 300 nM (about IC25), added 48 h after transfection, for 48 h; comparison arm got DMSO vehicle only. Measured: 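Cell gain (DAPI nuclei at end minus before drug, mean of two replicates) and medium lactate by absorbance per cell, both as ratio to non-targeting siRNA, also grouped into fold-change classes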. Scale: cell gain with vemurafenib: higher = more cell gain than with non-targeting siRNA; lactate per cell with vemurafenib: higher = more lactate made per cell. Hit rule: 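a knock-down counts as enhancing when its fold-change classes with vehicle and with vemurafenib, taken together, show a stronger drug effect on cell gain or lactate per cell; exact class pairs not stated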. Calls: active = enhances vemurafenib effect; inactive = no enhancement seen.
The deposit covers about 18,000 reagents; below is a random part of them. Of all reagents, 790 (4.4%) got an active call. 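Calls rest on a combination of fold-change classes in drug and vehicle arms, not all shown here.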 A number with no mark means an inactive call. Some reagents were tested in more than one well and are listed for each.

Which result is listed for VTI1B?
cell gain with vemurafenib: 0.9; lactate per cell with vemurafenib: 1.03

How did the screen score KDM1B?
cell gain with vemurafenib: 1.09; lactate per cell with vemurafenib: 0.68

Which result is listed for CC2D1B?
cell gain with vemurafenib: 0.89; lactate per cell with vemurafenib: 0.76

With PKHD1, what was measured?
cell gain with vemurafenib: 0.44; lactate per cell with vemurafenib: 0.74

Which result is listed for CD33?
cell gain with vemurafenib: 0.74; lactate per cell with vemurafenib: 0.73

How did the screen score NUDT15?
cell gain with vemurafenib: 0.66; lactate per cell with vemurafenib: 0.58

For LOC100288884 (retired record), how do the results read?
cell gain with vemurafenib: 0.14; lactate per cell with vemurafenib: 2.74

What did the screen give for SLC35B2?
cell gain with vemurafenib: 0.73; lactate per cell with vemurafenib: 1

What did the screen give for PSMF1?
cell gain with vemurafenib: 0.18; lactate per cell with vemurafenib: 1.52

How did the screen score OR5M3?
cell gain with vemurafenib: 0.56; lactate per cell with vemurafenib: 1.8

Which result is listed for UBASH3A?
cell gain with vemurafenib: 0.52; lactate per cell with vemurafenib: 1.48

With FBXO39, what was measured?
cell gain with vemurafenib: 0.92; lactate per cell with vemurafenib: 0.36

How did the screen score GJC3?
cell gain with vemurafenib: 0.05; lactate per cell with vemurafenib: 1.87

What is on record for PBRM1?
cell gain with vemurafenib: 0.71; lactate per cell with vemurafenib: 1.21

For PORCN, what does the deposit list?
cell gain with vemurafenib: 0.8; lactate per cell with vemurafenib: 0.5

How did the screen score BLZF1?
cell gain with vemurafenib: 1.06; lactate per cell with vemurafenib: 1.02

For CELF2, what was measured?
cell gain with vemurafenib: 0.61; lactate per cell with vemurafenib: 1.6

What is on record for DYSF?
cell gain with vemurafenib: 0.71; lactate per cell with vemurafenib: 2.13

For KRTAP4-4, what does the deposit list?
cell gain with vemurafenib: 0.6; lactate per cell with vemurafenib: 0.68

With WDR20, how do the results read?
cell gain with vemurafenib: 0.63; lactate per cell with vemurafenib: 0.31

For CDK9, what was measured?
cell gain with vemurafenib: 0.68; lactate per cell with vemurafenib: 0.62

With NCBP3, what was measured?
cell gain with vemurafenib: 0.87; lactate per cell with vemurafenib: 1.4

How did the screen score INMT?
cell gain with vemurafenib: 0.32; lactate per cell with vemurafenib: 2.09

What did the screen give for ZNF615?
cell gain with vemurafenib: 0.85; lactate per cell with vemurafenib: 0.32

With POGK, what was measured?
cell gain with vemurafenib: 0.72; lactate per cell with vemurafenib: 0.84

What did the screen give for APOLD1?
cell gain with vemurafenib: 0.72; lactate per cell with vemurafenib: 1.43

How did the screen score RING1?
cell gain with vemurafenib: 0.33; lactate per cell with vemurafenib: 2.27

What did the screen give for LMTK3?
cell gain with vemurafenib: 0.15; lactate per cell with vemurafenib: 1.02

With LMTK3, how do the results read?
cell gain with vemurafenib: 0.51; lactate per cell with vemurafenib: 0.88

How did the screen score ZNF517?
cell gain with vemurafenib: 0.55; lactate per cell with vemurafenib: 1.28

With RSPO3, how do the results read?
cell gain with vemurafenib: 0.12; lactate per cell with vemurafenib: 0.56

What did the screen give for SEMA3G?
cell gain with vemurafenib: 0.54; lactate per cell with vemurafenib: 1.08

How did the screen score BRD7?
cell gain with vemurafenib: 0.3; lactate per cell with vemurafenib: 0.53

What is on record for COPS7B?
cell gain with vemurafenib: 0.55; lactate per cell with vemurafenib: 0.82

Which result is listed for PPAT?
cell gain with vemurafenib: 0.88; lactate per cell with vemurafenib: 0.24

With FGF16, what does the deposit list?
cell gain with vemurafenib: 0.81; lactate per cell with vemurafenib: 1.04

What is on record for DVL1?
cell gain with vemurafenib: 0.92; lactate per cell with vemurafenib: 0.46

Which result is listed for DOCK9?
cell gain with vemurafenib: 0.28; lactate per cell with vemurafenib: 1.96

How did the screen score TP53INP2?
cell gain with vemurafenib: 0.49; lactate per cell with vemurafenib: 0.87

For ZC3H3, how do the results read?
cell gain with vemurafenib: 0.95; lactate per cell with vemurafenib: 0.83

What is on record for KCTD4?
cell gain with vemurafenib: 0.57; lactate per cell with vemurafenib: 0.43

What is on record for EBAG9?
cell gain with vemurafenib: 0.38; lactate per cell with vemurafenib: 1.08

How did the screen score SHOC2?
cell gain with vemurafenib: 1.05; lactate per cell with vemurafenib: 0.7

With MTMR14, what does the deposit list?
cell gain with vemurafenib: 0.51; lactate per cell with vemurafenib: 0.71

What is on record for AAK1?
cell gain with vemurafenib: 0.15 (active); lactate per cell with vemurafenib: 0.54

What did the screen give for CCER1?
cell gain with vemurafenib: 0.86; lactate per cell with vemurafenib: 1

With QTGAL, what was measured?
cell gain with vemurafenib: 0.71; lactate per cell with vemurafenib: 0.97

How did the screen score HSCB?
cell gain with vemurafenib: 0.8; lactate per cell with vemurafenib: 0.55

With MMP20, how do the results read?
cell gain with vemurafenib: 0.65; lactate per cell with vemurafenib: 1.45

Which result is listed for TMEM87A?
cell gain with vemurafenib: 0.53; lactate per cell with vemurafenib: 0.24

What did the screen give for CENPP?
cell gain with vemurafenib: 0.34; lactate per cell with vemurafenib: 1.79

With RUBCNL, how do the results read?
cell gain with vemurafenib: 0.49; lactate per cell with vemurafenib: 1.17

6 entries already listed, sorted by “cell gain with vemurafenib”, lowest first.
AAK1 → cell gain with vemurafenib: 0.15 (active); lactate per cell with vemurafenib: 0.54
EBAG9 → cell gain with vemurafenib: 0.38; lactate per cell with vemurafenib: 1.08
MTMR14 → cell gain with vemurafenib: 0.51; lactate per cell with vemurafenib: 0.71
QTGAL → cell gain with vemurafenib: 0.71; lactate per cell with vemurafenib: 0.97
CCER1 → cell gain with vemurafenib: 0.86; lactate per cell with vemurafenib: 1
SHOC2 → cell gain with vemurafenib: 1.05; lactate per cell with vemurafenib: 0.7
